PMC7801453
These are yes or no findings as the source states them, for the method shown. Binding seen in cells or lysates may run through a third protein. Some binding calls cover weakened binding; strength is not graded here. Tags and fused reporters may be left off the sequences shown.

The chains behind the UniProt entries cited, without tags or fusion partners.
UniProt O14686: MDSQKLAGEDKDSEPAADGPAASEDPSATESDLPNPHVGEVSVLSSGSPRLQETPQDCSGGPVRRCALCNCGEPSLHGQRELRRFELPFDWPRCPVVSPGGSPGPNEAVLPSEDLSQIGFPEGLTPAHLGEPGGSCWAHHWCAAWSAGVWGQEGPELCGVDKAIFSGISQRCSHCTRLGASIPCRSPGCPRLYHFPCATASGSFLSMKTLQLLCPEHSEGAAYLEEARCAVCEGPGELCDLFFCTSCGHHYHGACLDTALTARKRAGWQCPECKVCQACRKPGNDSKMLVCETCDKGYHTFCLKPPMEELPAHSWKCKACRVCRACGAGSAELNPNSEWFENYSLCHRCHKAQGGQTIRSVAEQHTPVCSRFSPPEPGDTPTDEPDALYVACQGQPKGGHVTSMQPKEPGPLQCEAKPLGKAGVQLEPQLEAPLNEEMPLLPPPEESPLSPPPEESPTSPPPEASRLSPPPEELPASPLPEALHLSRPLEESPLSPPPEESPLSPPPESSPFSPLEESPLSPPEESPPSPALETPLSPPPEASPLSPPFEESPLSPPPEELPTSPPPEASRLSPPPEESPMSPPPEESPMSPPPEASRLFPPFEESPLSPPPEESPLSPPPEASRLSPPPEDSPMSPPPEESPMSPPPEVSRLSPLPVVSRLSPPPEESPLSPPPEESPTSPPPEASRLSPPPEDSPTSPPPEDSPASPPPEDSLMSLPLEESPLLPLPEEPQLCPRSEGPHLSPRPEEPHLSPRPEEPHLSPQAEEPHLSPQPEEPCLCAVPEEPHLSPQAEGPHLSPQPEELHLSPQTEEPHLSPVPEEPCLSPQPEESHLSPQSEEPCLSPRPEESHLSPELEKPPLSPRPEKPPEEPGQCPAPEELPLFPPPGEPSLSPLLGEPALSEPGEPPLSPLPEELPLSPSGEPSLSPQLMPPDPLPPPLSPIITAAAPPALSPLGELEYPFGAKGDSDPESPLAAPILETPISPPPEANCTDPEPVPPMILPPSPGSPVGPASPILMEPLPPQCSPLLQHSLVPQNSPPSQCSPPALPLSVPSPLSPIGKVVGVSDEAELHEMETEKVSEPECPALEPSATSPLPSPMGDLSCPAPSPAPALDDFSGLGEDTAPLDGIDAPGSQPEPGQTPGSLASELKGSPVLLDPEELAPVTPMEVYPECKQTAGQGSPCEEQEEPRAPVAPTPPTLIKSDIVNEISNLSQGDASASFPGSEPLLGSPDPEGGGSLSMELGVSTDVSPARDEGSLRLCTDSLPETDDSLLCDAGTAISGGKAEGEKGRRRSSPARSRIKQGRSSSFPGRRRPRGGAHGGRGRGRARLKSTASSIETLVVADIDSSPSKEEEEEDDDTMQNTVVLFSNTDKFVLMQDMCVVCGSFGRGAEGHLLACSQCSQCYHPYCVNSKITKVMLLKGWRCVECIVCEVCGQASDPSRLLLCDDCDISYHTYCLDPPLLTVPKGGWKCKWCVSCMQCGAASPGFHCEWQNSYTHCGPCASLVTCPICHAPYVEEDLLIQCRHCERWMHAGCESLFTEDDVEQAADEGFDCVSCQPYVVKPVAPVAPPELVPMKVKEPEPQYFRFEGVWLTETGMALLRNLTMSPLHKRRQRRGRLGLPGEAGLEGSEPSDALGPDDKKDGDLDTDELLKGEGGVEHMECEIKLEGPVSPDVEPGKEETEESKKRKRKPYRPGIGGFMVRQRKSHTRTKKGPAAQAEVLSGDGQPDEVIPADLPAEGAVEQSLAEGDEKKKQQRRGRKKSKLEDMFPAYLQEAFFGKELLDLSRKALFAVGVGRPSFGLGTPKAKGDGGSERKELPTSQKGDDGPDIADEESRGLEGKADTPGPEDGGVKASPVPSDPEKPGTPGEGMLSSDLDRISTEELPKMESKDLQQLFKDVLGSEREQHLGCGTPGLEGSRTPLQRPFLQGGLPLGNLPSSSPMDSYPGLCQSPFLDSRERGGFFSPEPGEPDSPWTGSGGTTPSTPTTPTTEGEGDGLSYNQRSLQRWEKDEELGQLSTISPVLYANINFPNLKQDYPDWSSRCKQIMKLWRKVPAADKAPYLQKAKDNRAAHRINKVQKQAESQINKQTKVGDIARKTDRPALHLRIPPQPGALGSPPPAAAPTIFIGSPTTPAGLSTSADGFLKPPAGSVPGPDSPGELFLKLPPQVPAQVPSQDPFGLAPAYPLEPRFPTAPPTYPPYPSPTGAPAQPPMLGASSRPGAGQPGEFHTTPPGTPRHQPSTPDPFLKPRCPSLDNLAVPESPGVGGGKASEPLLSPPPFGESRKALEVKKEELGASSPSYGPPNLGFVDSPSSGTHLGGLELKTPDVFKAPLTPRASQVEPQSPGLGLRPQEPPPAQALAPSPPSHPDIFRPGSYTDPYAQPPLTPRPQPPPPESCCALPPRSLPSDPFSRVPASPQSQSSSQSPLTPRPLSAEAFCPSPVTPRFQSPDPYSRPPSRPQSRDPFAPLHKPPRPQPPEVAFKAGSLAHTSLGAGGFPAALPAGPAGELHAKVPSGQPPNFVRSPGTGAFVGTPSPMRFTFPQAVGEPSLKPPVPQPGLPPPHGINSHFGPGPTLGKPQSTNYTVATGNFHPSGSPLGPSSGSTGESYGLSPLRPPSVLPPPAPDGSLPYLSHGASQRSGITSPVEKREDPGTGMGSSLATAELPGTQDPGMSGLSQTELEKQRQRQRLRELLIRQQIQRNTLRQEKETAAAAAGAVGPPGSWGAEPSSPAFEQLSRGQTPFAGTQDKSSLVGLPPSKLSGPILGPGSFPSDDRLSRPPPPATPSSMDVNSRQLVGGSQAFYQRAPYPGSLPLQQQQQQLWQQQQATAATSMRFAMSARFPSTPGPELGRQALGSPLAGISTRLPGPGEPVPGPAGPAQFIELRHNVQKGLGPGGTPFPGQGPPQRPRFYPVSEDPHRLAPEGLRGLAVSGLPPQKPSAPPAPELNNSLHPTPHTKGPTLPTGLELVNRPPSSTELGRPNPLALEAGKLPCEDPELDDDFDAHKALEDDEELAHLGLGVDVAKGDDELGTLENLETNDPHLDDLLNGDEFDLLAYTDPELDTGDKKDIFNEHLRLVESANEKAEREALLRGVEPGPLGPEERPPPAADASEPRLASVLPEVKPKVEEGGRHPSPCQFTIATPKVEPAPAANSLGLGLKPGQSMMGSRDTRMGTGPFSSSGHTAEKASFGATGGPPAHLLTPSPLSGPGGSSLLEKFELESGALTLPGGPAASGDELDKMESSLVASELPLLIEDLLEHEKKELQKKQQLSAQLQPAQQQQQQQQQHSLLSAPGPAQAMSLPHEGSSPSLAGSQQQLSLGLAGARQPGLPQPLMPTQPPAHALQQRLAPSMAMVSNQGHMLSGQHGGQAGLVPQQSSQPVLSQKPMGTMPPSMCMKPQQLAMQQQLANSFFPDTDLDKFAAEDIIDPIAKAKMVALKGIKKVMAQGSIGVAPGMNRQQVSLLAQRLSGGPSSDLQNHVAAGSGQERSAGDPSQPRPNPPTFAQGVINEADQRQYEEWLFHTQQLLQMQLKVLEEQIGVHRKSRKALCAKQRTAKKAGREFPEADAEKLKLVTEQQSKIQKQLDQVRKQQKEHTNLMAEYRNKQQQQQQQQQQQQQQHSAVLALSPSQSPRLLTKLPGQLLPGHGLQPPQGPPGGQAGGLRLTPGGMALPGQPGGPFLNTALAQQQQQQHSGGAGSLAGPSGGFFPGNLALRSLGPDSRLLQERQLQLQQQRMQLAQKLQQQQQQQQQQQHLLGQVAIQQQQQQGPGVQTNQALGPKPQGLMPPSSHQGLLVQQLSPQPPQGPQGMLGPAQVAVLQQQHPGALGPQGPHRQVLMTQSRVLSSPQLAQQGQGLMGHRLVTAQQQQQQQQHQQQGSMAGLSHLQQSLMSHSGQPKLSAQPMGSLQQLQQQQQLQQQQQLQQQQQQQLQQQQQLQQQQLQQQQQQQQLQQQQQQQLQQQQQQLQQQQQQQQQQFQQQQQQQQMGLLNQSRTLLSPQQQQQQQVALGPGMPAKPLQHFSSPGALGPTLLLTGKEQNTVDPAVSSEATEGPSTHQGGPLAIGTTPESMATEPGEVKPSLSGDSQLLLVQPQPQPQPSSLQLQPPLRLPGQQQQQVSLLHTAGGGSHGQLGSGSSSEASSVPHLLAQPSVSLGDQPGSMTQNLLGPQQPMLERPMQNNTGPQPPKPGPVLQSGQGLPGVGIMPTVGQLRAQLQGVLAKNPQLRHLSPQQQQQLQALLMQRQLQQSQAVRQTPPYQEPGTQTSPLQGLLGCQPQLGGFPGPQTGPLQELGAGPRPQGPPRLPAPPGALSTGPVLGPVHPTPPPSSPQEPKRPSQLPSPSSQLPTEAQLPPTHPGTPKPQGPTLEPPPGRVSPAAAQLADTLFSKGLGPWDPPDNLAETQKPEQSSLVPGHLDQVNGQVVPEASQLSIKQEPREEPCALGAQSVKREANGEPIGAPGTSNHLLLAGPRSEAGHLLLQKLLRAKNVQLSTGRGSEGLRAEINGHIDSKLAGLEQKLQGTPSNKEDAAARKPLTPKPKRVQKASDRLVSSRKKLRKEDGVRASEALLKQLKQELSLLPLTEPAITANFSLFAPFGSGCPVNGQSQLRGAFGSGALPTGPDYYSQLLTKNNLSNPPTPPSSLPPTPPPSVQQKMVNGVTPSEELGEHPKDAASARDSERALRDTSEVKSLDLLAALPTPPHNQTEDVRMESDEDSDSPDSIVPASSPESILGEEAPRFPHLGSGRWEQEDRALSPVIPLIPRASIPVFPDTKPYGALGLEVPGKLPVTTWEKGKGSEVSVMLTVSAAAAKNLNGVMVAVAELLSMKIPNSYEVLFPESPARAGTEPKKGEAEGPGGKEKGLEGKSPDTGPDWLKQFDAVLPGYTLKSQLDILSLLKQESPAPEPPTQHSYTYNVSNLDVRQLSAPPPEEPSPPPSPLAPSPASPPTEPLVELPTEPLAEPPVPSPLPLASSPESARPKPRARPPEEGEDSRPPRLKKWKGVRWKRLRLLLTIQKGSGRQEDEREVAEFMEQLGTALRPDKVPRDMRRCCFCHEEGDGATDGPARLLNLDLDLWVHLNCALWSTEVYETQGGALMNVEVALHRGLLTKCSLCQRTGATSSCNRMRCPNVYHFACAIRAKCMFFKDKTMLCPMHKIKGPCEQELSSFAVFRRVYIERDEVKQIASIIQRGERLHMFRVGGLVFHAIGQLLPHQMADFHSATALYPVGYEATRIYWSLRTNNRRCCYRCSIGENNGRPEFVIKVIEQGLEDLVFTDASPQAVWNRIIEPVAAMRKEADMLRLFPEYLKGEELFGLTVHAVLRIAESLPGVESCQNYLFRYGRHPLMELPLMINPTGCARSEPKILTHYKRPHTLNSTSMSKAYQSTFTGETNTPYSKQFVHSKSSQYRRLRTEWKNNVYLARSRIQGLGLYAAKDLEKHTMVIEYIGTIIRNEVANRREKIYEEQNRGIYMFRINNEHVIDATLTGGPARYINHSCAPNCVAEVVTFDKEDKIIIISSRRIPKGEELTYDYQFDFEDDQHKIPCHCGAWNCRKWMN

Molecular target: Mll4 (histone H3-lysine 4-methyltransferase) (human (endogenous in HEK293)) (UniProt O14686)
Test: co-IP; HEK293 cells transfected with Flag-Nrf1, lysed in RIPA buffer; immunoprecipitation with Mll4 antibody overnight, Protein A/G agarose beads; blot with antibody against Flag-tag

B1: Flag-Nrf1 (nuclear respiratory factor 1) (protein, UniProt Q9WU00 1-503)
chain: MEEHGVTQTEHMATIEAHAVAQQVQQVHVATYTEHSMLSADEDSPSSPEDTSYDDSDILNSTAADEVTAHLAAAGPVGMAAAAAVATGKKRKRPHVFESNPSIRKRQQTRLLRKLRATLDEYTTRVGQQAIVLCISPSKPNPVFKVFGAAPLENVVRKYKSMILEDLESALAEHAPAPQEVNSELPPLTIDGIPVSVDKMTQAQLRAFIPEMLKYSTGRGKPGWGKESCKPIWWPEDIPWANVRSDVRTEEQKQRVSWTQALRTIVKNCYKQHGREDLLYAFEDQQTQTQATTTHSIAHLVPSQTVVQTFSNPDGTVSLIQVGTGATVATLADASELPTTVTVAQVNYSAVADGEVEQNWATLQGGEMTIQTTQASEATQAVASLAEAAVAASQEMQQGATVTMALNSEAAAHAVATLAEATLQGGGQIVLSGETAAAVGALTGVQDANGLVQIPVSMYQTVVTSLAQGNGPVQVAMAPVTTRISDSAVTMDGQAVEVVTLEQ
B1 was tested, and the binding was “binds”.
